Test results: PubChem BioAssay AID2685 (National Center for Advancing Translational Sciences (NCATS), 2010)
The other results are listed elsewhere or left out. The main result of the screen is listed elsewhere. These columns were measured beside it and carry no call. Compounds called inactive in the main read-out are mostly missing here. Words in brackets tell the shape of the fitted curve; partial curves, single points and poor fits give uncertain potencies.

Assay: qHTS Assay for Lipid Storage Modulators in Drosophila S3 Cells;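 for cell number change: cells counted by Cell Tracker Red CMTPX staining in the red channel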
Settings: BODIPY lipid droplet fluorescence, 18-24 h; for cell number change: measured here: cell count max response, cells fed with added oleic acid
In short: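 Laser-scanning cytometry quantifies lipid droplet accumulation (500–530 nm total intensity; droplet/cell object ratio) in oleic acid-fed (400 uM added) Drosophila S3 cells treated with a concentration series. 20 uM Triacsin C defined 100% inhibition.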

[1] = measured here: cell number channel AC50, cells fed with added oleic acid
[2] = measured here: lipid fluorescence (Fed channel) AC50, cells fed with added oleic acid

Work on `Cn1c(-c2ccc(CN3CCCCC3)o2)nc2ccccc21` yielded a cell number change of 3.22%.
With `O=c1c2ccccc2nc2ccc(NCc3ccco3)nn12` the cell number change was -34.3%, the AC50 [1] was 8.2 µM [falling, partial curve, poor fit] and the AC50 [2] was 8.2 µM [falling, partial curve, poor fit].
With `CCOc1ccc(NS(=O)(=O)c2ccc(NC(=O)C3CC3)cc2)cc1` the cell number change was 24.9% and the AC50 [2] was 6.51 µM [rising, single point].
With `O=C1OCC(c2ccccc2)=C1c1ccccc1` the AC50 [2] was 2.91 µM [falling, single point].
In the case of `COc1cc(/C=C(\C#N)C(=O)N2CCOCC2)cc(Br)c1O`, the cell number change is reported as -21%, the AC50 [1] is reported as 1.84 µM [rising, partial curve] and the AC50 [2] is reported as 32.6 µM [falling, single point].
In the case of `COCCN(C(=O)COC(=O)C1CC1C)c1c(N)n(Cc2ccccc2)c(=O)[nH]c1=O` (stereo not given), the cell number change is reported as -19.3% and the AC50 [1] is reported as 0.82 µM [falling, full curve].
In the case of `Cc1cccc(N(C(=O)CNC(=O)c2ccco2)C(C(=O)NC2CCCC2)c2cccnc2)c1C` (stereo not given), the cell number change is reported as -6.41% and the AC50 [2] is reported as 0.116 µM [rising, single point].
For `CCC(C)C(N=C1NS(=O)(=O)c2ccccc21)C(=O)N1CCC(C)CC1` (stereo not given), the AC50 [1] was 7.31 µM [falling, partial curve, poor fit].
With `O=C(NC(=S)Nc1ccc(Cl)c(C(=O)O)c1)c1cncc(Br)c1` the cell number change was 12.5%, the AC50 [1] was 0.259 µM [rising, full curve, poor fit] and the AC50 [2] was 6.51 µM [falling, single point].
In the case of `CC1(C)CC2C1CCC1(O)CC2(C)CCC1N(O)c1ccc(C(=O)NCCO)cn1` (stereo not given), the cell number change is reported as -13.2% and the AC50 [2] is reported as 6.51 µM [rising, single point].
With `COc1ccc(/C=C2\OC(=S)N(C)C2=O)cc1` the cell number change was -26% and the AC50 [2] was 29.1 µM [falling, single point].
In the case of `c1ccc(CSc2nnc(-c3c[nH]c4ccccc34)o2)cc1`, the cell number change is reported as -111%, the AC50 [1] is reported as 16.4 µM [falling, partial curve] and the AC50 [2] is reported as 18.4 µM [falling, single point].
Work on `Cn1c(=O)c2cc(S(=O)(=O)NCCC(=O)NCCC3=CCCCC3)ccc2n(C)c1=O` yielded a cell number change of -32.3%.
With `COc1cccc(NC(=O)CSc2nc3ccccc3c(=O)n2CCCC(=O)N2CCCC2)c1` the cell number change was 19.1% and the AC50 [2] was 1.64 µM [rising, partial curve, poor fit].
With `O=C1C=CC(O)(c2cc(=O)c3c(O)cc(O)cc3o2)C=C1` the cell number change was -85.7%, the AC50 [1] was 14.6 µM [falling, partial curve] and the AC50 [2] was 7.31 µM [falling, partial curve].
For `O=C(CSc1nnnn1Cc1ccccc1)NCCc1ccccc1`, the cell number change was 113%, the AC50 [1] was 29.1 µM [rising, single point] and the AC50 [2] was 29.1 µM [rising, single point].
In the case of `CC(=NC(C)C)C1=C(O)CCC1=O`, the cell number change is reported as -55.9%, the AC50 [1] is reported as 5.17 µM [falling, full curve, poor fit] and the AC50 [2] is reported as 18.4 µM [falling, single point].
Work on `CCc1c(C)n([O-])c2c([n+]1=O)CCC2` yielded a cell number change of -138%.
In the case of `O=C(Nc1ccc(-c2csc(Nc3cccc(C(F)(F)F)c3)n2)cc1)c1ccccc1`, the cell number change is reported as -53.6%, the AC50 [1] is reported as 29.1 µM [falling, single point] and the AC50 [2] is reported as 29.1 µM [falling, single point].
For `Cc1nn(CC(=O)NCc2ccc(Cl)cc2)c(C)c1[N+](=O)[O-]`, the cell number change was 22.4% and the AC50 [2] was 14.6 µM [falling, single point].
With `Cc1cc(C(=O)N/N=C/c2ccc(C)s2)n[nH]1` the cell number change was -4.76%.
For `O=C(N/N=C/c1ccccn1)c1cc(-c2ccc(Br)cc2)nc2ccccc12`, the cell number change was -40.6%, the AC50 [1] was 32.6 µM [falling, single point] and the AC50 [2] was 29.1 µM [falling, partial curve, poor fit].
In the case of `CCC1CCCCN1Cc1ccc(CNC(=O)CCc2nnc3ccc(N4CCCCC4)nn23)o1` (stereo not given), the cell number change is reported as -2.29% and the AC50 [2] is reported as 29.1 µM [falling, single point].
With `COCCCNC(=O)CN1C(=O)CSc2ncccc21` the cell number change was -14.1% and the AC50 [2] was 29.1 µM [falling, single point].
With `COc1ccc(-n2c(SCc3ccc([N+](=O)[O-])cc3)nnc2-c2ccccc2)cc1` the cell number change was 10.6% and the AC50 [2] was 23.1 µM [falling, partial curve].
With `CCSCc1nnc(SCC(=O)Nc2cc(F)ccc2C)n1C` the cell number change was 3.82% and the AC50 [2] was 29.1 µM [falling, partial curve, poor fit].
For `CCOc1cc(NC(=S)NCCCOC)c(OCC)cc1NC(=O)c1ccco1`, the cell number change was 2.89% and the AC50 [2] was 0.13 µM [rising, full curve, poor fit].
In the case of `CCOC(=O)Cc1csc(SCC(=O)Nc2ccc3[nH]c(=O)[nH]c3c2)n1`, the cell number change is reported as 9.09% and the AC50 [2] is reported as 29.1 µM [falling, single point].
With `Cc1cc(C)cc(OCC(=O)Nc2cccc(C(=O)O)c2)c1` the cell number change was -48.2%, the AC50 [1] was 29.1 µM [falling, single point] and the AC50 [2] was 20.6 µM [falling, partial curve].
In the case of `CCc1cc2c(=O)c(-c3nc4ccccc4[nH]3)coc2c(CN2CCCCC2)c1O`, the cell number change is reported as 38.9%, the AC50 [1] is reported as 29.1 µM [rising, single point] and the AC50 [2] is reported as 29.1 µM [rising, partial curve, poor fit].
For `O=[N+]([O-])c1cc(-c2ccc(C(=S)N3CCOCC3)o2)ccc1Cl`, the cell number change was -51.7%, the AC50 [1] was 29.1 µM [falling, single point] and the AC50 [2] was 25.9 µM [falling, partial curve].
With `COc1cc(C2CC(=O)c3c([nH]c(C(=O)OCCOC(C)C)c3C)C2)cc(OC)c1OC` (stereo not given) the cell number change was -24.5% and the AC50 [2] was 29.1 µM [falling, partial curve].
In the case of `N#Cc1ccccc1NC(=O)COC(=O)c1ccc2c(c1)OCO2`, the cell number change is reported as 5.73% and the AC50 [2] is reported as 4.61 µM [rising, full curve, poor fit].
`O=C(CC(=O)NCc1ccccc1)NCc1ccccc1` gave a cell number change of 5.98%.
With `CN(CC(=O)Nc1ccc(Cl)c(Cl)c1)C(=O)C12CC3CC(CC(C3)C1)C2` the cell number change was -10.4% and the AC50 [2] was 4.11 µM [falling, partial curve, poor fit].
